From the supplement of paper PMC3334620
Over roughly 33,000 sequences, “E-score (-0.5 to 0.5)” has its median near -0.016; the highest 2% begin near 0.3. Some of the results follow.

Target: T1, Yer184c (UniProt P39961)
T1 sequence: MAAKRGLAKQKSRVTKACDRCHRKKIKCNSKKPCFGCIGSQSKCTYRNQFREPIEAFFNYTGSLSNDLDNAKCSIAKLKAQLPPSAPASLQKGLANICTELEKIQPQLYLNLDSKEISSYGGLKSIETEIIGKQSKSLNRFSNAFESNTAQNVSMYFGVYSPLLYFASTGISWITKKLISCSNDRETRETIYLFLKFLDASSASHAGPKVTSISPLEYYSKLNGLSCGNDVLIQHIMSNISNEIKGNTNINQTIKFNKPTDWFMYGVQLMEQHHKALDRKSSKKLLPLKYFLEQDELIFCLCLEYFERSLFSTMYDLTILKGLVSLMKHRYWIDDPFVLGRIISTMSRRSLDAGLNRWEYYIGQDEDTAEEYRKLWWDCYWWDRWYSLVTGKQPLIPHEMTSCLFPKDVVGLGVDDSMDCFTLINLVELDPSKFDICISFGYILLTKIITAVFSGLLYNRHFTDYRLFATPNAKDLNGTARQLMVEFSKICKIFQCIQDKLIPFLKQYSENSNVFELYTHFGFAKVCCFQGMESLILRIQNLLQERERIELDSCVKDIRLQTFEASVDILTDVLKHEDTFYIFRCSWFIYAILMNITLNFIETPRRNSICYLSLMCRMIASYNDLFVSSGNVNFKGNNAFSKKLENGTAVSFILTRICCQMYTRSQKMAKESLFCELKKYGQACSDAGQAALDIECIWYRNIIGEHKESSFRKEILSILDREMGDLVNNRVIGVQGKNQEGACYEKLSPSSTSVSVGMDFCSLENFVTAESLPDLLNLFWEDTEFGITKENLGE
Assay: PBM E-score (8-mer binding enrichment) (E-score (-0.5 to 0.5)); higher = stronger / more preferred TF binding
Conditions: protein concentration: 100 nM; construct: GST-full length
Procedure, shortened: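 Universal all-10-mer Agilent arrays, fresh or stripped once, were converted to double-stranded form by primer extension. GST-tagged yeast transcription factors from PURExpress in vitro transcription/translation, full-length or DNA-binding domain only, were applied at about 100-200 nM and detected with fluorescent anti-GST. After masliner normalisation, the Universal PBM Analysis Suite scored each ungapped eight-base word together with its reverse complement by E-score.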

Sequence	PBM E-score
CTTGCTAA	-0.00145
ACCGTATG	-0.0719
ACCAAGAT	0.013
AGTGAAGG	-0.136
CCACCAAA	0.0181
CCATGGGA	-0.211
AGCCCCAT	-0.257
CATGAGAA	0.119
CCTGGGTA	-0.148
CTTCCGTC	0.209
CCGGGGCA	-0.00537
CCATTCAC	-0.0255
AAAACCCT	-0.192
CTTTGGAC	0.159
CAAGCCTA	-0.0384
ATTCTCGG	0.345
CAAGGTCC	-0.0303
AGCTTTCG	0.105
GCACAAGA	0.00151
TCCCGAGA	0.305
GTCACCAC	-0.124
ACCAACGA	0.0181
GCGGGCTA	-0.04
ACGAGCAT	-0.278
CCGTACTA	0.168

Sequence	PBM E-score
GATTACTA	0.0673
AAACCCCG	0.0829
CACTAGCG	-0.09
CCAGGGTA	-0.174
CCCACTCA	-0.298
CCTAGTTA	0.0429
CATCGTAG	-0.234
ACGCTTAC	-0.222
GGCCATAC	-0.00371
ACGAGTCC	-0.0334
GGACCAAA	0.116
CATATCAC	-0.0551
ATTGTAGC	0.0678
AGGTATCA	-0.234
ATCTATCC	0.194
ACGTTACG	0.0294
TATCCCAA	-0.0284
ACGACACG	-0.121
AGACTTAG	-0.18
GTAACCCA	0.0208
ACTAAGAA	0.0409
AGGAACAA	0.0767
TACATTGA	0.176
TATGAGGA	-0.105
AGTTCGGC	0.295

Sequence	PBM E-score
AATAGCGC	0.0274
CTCTGAGC	-0.131
AAAGGACC	-6e-05
CTGGCCCC	-0.138
CTACTGGC	-0.297
AACACTCG	0.0864
GGTCCACA	-0.151
ATGACCAA	0.00989
CTCCAGCA	-0.321
CCGAACAC	0.215
AAGTGTTC	-0.00384
CGGGAACC	0.0784
AAGTATGA	0.052
GTAGTCAA	0.115
TCGTAAGA	0.0508
GTGTAACA	-0.0685
AAGAGAAT	0.0316
ATTGCTAC	-0.0688
GCCCCTAC	-0.288
AGTTAAAA	0.176
GGATAGCC	0.198
ACAAGGTA	0.0323
GTATATAC	-0.0816
AAACTCCG	0.319
ACCTTTAA	0.138

Sequence	PBM E-score
TCGACGCA	-0.00982
CATTAAGC	0.0322
CTGTCATC	0.0383
GTCATGAA	0.0972
AATGTGAT	-0.0713
CTCGTCCA	-0.0079
AAGATCGA	0.166
AGGGTGTA	-0.152
AGGCTACT	-0.0871
ACGGTCGC	-0.197
GATTCACC	-0.105
GTCGACCA	-0.0393
AGCGCACC	-0.0934
AAATGAGG	-0.174
GCCTCGCC	-0.34
ATGTCGAC	0.0646
GACCCCTC	-0.274
GACCACAC	-0.124
GCGCGCGC	0.273
GGCCCTAC	-0.279
CCTTCTCA	-0.154
CTTTGTGA	0.063
AGCTTTGA	0.102
CGGAAGTC	0.232
ACCCGGCC	0.255

Sequence	PBM E-score
AAAGAGTA	-0.0516
CCTGAAAG	0.0373
AGGCAACG	-0.106
GATTGGTA	0.088
CCTCGAAG	-0.0114
ATAAAGTC	0.102
AGGTTATA	-0.101
CCGTAGTA	0.109
GGCTTCAA	-0.00541
ATACTGAT	0.161
GCTGAACA	0.0152
CAGGGTAC	-0.246
CAGCCGGC	0.391
AACCCGAT	0.0975
AGAAGGCT	-0.278
GGGAGTGA	-0.0149
CCTGACCC	-0.117
CAGCGCTA	0.0165
TACGGTAA	0.188
CTAACCAA	0.0989
AGCCGCCC	-0.0791
CTATACTC	-0.184
CTCGCGGC	0.146
AATTCTTG	0.125
AGTCGCAC	-0.334

Sequence	PBM E-score
AGTGAGTG	0.038
CGATTCCC	-0.0539
ACAAAATA	0.0279
CGTGTAGC	-0.157
CCGAACAG	0.216
ACTCTAAC	0.0815
GATGAATC	0.0272
CCATAAAA	0.13
ACAATATG	0.133
ACATCACC	-0.124
AACGCCTG	-0.104
CACTTACG	0.109
CTTGAACC	0.0363
AATATATT	0.38
TCACAGAA	-0.0101
GACAGCCA	-0.108
AACGACGC	0.0135
ACTCTCCA	-0.13
ATCCCTTC	-0.0712
CGCCCAAA	0.0692
CAACCCGC	0.0691
GCCAGTGA	-0.249
CGCTGAAC	0.158
CTAGCATC	-0.0387
ACAACTGT	-0.135

A second format for part of the listing above.
Sequence | PBM E-score
CGGAAGTC | 0.232
ACCCGGCC | 0.255
AAAGAGTA | -0.0516
CCTGAAAG | 0.0373
AGGCAACG | -0.106
GATTGGTA | 0.088
CCTCGAAG | -0.0114
AGGTTATA | -0.101
CCGTAGTA | 0.109
GGCTTCAA | -0.00541
ATACTGAT | 0.161
GCTGAACA | 0.0152
CAGGGTAC | -0.246
CAGCCGGC | 0.391
AACCCGAT | 0.0975
AGAAGGCT | -0.278
GGGAGTGA | -0.0149
CCTGACCC | -0.117
CAGCGCTA | 0.0165
TACGGTAA | 0.188
CTAACCAA | 0.0989
AGCCGCCC | -0.0791
CTATACTC | -0.184
CTCGCGGC | 0.146
AATTCTTG | 0.125
AGTCGCAC | -0.334
AGTGAGTG | 0.038
CGATTCCC | -0.0539
ACAAAATA | 0.0279
CGTGTAGC | -0.157
CCGAACAG | 0.216
ACTCTAAC | 0.0815
GATGAATC | 0.0272
CCATAAAA | 0.13
ACATCACC | -0.124
AACGCCTG | -0.104
CACTTACG | 0.109
CTTGAACC | 0.0363
TCACAGAA | -0.0101
GACAGCCA | -0.108
AACGACGC | 0.0135
ACTCTCCA | -0.13
ATCCCTTC | -0.0712
CGCCCAAA | 0.0692
CAACCCGC | 0.0691
GCCAGTGA | -0.249
CGCTGAAC | 0.158
CTAGCATC | -0.0387
ACAACTGT | -0.135

Carrying on.

Sequence	PBM E-score
AAGAGCTC	-0.13
CGGGACGC	-0.0137
ACCCGATC	0.0304
AAGTGCAG	-0.216
CACCTAGG	-0.267
ACTGCGAG	-0.372
AGTGCCTA	-0.0953
AATTTGGG	-0.0948
ATCCCAAT	-0.139
AACTCGAC	0.149
AGAGCGCA	-0.3
AAGAGGGT	-0.242
AGTCAATC	-0.0555
GAGCATTA	-0.0398
AGGAACGC	-0.0436
CTTTCGGA	0.286
CTCTCTAA	-0.188
ATCTCCTA	-0.226
CTGAGCCC	-0.168
ACTACACC	-0.0218
CAATAGAA	-0.11
AGGTCTCC	-0.183
